For part of these data: A negative result means that nothing was seen under these conditions. For part of these data: Protein sequences can lack the tags named with them. For part of these data: The exact form of at least one protein or probe is not confirmed. For part of these data: Weaker means in comparison with the reference protein, sequence or condition of that experiment.
Tests used:
[1] = system: KpnI methylase, deletion derivative pKpnM45 (Klebsiella pneumoniae BRL 25); assay: activity in cells; details: partial methylase activity; protein in cells; only the site is given
[2] = target: T1, KpnI methylase (Klebsiella pneumoniae BRL 25) (UniProt P25238); assay: activity in cells; details: plasmid and chromosomal DNA resistant to KpnI; protein in cells; only the site is given
T1 sequence (looked up, limits assumed): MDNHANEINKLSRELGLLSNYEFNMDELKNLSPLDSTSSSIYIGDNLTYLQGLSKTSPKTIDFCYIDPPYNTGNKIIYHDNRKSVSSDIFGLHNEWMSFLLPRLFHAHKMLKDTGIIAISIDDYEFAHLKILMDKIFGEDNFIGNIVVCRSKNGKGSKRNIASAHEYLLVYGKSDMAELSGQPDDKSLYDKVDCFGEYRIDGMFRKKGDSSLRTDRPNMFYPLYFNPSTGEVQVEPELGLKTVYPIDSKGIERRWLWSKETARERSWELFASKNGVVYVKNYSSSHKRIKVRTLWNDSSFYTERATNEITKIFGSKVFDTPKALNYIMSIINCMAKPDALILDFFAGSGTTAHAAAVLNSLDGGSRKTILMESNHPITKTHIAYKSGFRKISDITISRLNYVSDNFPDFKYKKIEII

[3] = target: T2, KpnI restriction endonuclease (Klebsiella pneumoniae BRL 25) (UniProt P25237); assay: enzyme reaction in vitro; details: methylated by KpnI methylase (position not given); DNA from pKpnM30 host protected from KpnI cleavage; no cleavage seen, binding not measured; protein in an extract
T2 sequence (looked up, limits assumed): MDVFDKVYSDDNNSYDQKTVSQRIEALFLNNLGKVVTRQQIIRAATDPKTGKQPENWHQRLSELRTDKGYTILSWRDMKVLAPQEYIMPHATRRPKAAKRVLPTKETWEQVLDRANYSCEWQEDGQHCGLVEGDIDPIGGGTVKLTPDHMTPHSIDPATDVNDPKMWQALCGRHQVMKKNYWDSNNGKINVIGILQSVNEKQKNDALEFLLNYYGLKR

Sequence | activity on this sequence [1] | activity on this sequence [2] | activity on this sequence [3]
GGTACC (double strand) [KpnI sites in host chromosomal and plasmid DNA] | less active | active | –
GGTACC (double strand) [KpnI sites methylated by KpnI methylase] | – | – | not active

Reference: patent US5082784
